Data taken from paper PMC4791236.
These are yes or no findings as the source states them, for the method shown. In cells and extracts the contact can be indirect. Some entries that bind do so weakly or less than the wild type.

Target: Mcl-1 (human (endogenous in HCT116 and LS174T)), Q07820
Experiment: co-IP; beads precoated with anti-Mcl-1 (anti-Gal4 as control), 500 ug of HCT116 or LS174T cell lysate, overnight at 4°C; lysis buffer pH 7.4, 20 mM Tris-HCl, 150 mM NaCl, 1 mM EDTA, 1% Triton X100; cells treated with sn38 and/or GSK690693 for 72 hr; blot for Noxa
Conditions: remark: other sources report otherwise

binding: binds
B1: Noxa, Q13794 1-54 (protein)
chain: MPGKKARKNAQPSPARAPAELEVECATQLRRFGDKLNFRQKLLNLISKLFCSGT
